The full ranking holds about 33,000 sequences; the median of “E-score (-0.5 to 0.5)” is about -0.0059, and the highest 2% start at about 0.26. This is one part of the list.

This assay has as its target T1, Cin5 (UniProt P40917).
T1 sequence: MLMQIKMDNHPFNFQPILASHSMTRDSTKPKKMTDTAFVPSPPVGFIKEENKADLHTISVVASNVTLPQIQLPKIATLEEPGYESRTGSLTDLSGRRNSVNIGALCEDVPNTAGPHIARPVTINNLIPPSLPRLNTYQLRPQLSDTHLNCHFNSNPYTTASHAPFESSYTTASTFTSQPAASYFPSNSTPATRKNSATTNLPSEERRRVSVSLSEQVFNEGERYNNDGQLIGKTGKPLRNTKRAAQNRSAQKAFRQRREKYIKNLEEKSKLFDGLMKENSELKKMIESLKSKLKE
Put plainly: PBM E-score (8-mer binding enrichment) (E-score (-0.5 to 0.5)); higher = stronger / more preferred TF binding. Particulars: protein concentration: 100 nM; construct: GST-full length. On the procedure: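 Universal 'all 10-mer' protein binding microarrays (Agilent AMADID 015681) probed with GST-tagged S. cerevisiae TFs (full-length or DBD) made by in vitro transcription/translation (PURExpress), about 100-200 nM. Bound TF was detected with fluorescent anti-GST. Each ungapped 8-mer (which stands for itself and its reverse complement) is scored by the PBM enrichment score (E-score), a modified Wilcoxon-Mann-Whitney statistic from -0.5 to +0.5, computed with the Universal PBM Analysis Suite. Scale: above 0.35 generally sequence-specific binding.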
Take AGTGATCC: the “PBM E-score” value was -0.0661.
For the sequence TAAACTAA, the “PBM E-score” value turned out to be 0.252.
In the case of CGAAGAAA, the “PBM E-score” value is 0.178.
In the case of GCCCACGC, the “PBM E-score” value is -0.163.
In the case of CGTCTTCA, the “PBM E-score” value is -0.00914.
In the case of ACGGGTGA, the “PBM E-score” value is -0.0265.
The same measure for CATAATTC: 0.138.
The same measure for ACGAGTCA: -0.257; for AAATGTAC: 0.19.
As to ACACTATC, the “PBM E-score” value is 0.142.
With GACGACTA, the “PBM E-score” value was -0.12.
For TCACACCA, the “PBM E-score” value was found to be 0.0417.
On to CCTCTCCA, for which the “PBM E-score” value is -0.359.
For CAGAATGC, the “PBM E-score” value is 0.0309.
Turning to AGCCGGTC, the “PBM E-score” value was -0.234.
The value for GATCCACA was -0.104; that for AAATTCCG was 0.158; that for TGCCGGAA was 0.0539.
On to GCTGTTTA, for which the “PBM E-score” value was 0.204.
For GCCCATTA, the “PBM E-score” value stood at 0.0374.
As to ATCTCGGC, the “PBM E-score” value stood at 0.0844.
GACAAACC: the “PBM E-score” value is -0.0583.
In the case of CAAAAAAC, the “PBM E-score” value was 0.101.
Regarding ACAATAAG, the “PBM E-score” value came to 0.0526.
Consider GCAACTGC, for which the “PBM E-score” value is 0.0384.
In the case of CCAGAGAA, the “PBM E-score” value is 0.0393.
As to ACTTGGGG, the “PBM E-score” value is 0.154.
In the case of AATGCCCA, the “PBM E-score” value is -0.0906.
On to CGTTCCAG, for which the “PBM E-score” value was -0.0777.
Consider TACAGAGA, for which the “PBM E-score” value was -0.107.
Take GGGAAGCA: the “PBM E-score” value is -0.186.
With ACACTGGC, the “PBM E-score” value was -0.0673.
With CGCCAGCC, the “PBM E-score” value was -0.031.
With CGGCGGAC, the “PBM E-score” value was -0.184.
ACGCCCCA: the “PBM E-score” value was 0.198.
On to CTTCTTGC, for which the “PBM E-score” value was -0.0659.
With CGCGGCCG, the “PBM E-score” value was -0.176.
In the case of GTGCTTCA, the “PBM E-score” value turned out to be 0.132.
For AAGACAAT, the “PBM E-score” value is 0.202.
As for CCTTCTAC, the “PBM E-score” value is -0.0521.
AATGTACG: the “PBM E-score” value amounted to 0.00418.
The value for AGTATAGA was 0.171; that for ACAGTTCC was 0.116; that for GAAGTCAC was -0.162.
For CTCTCAAG, the “PBM E-score” value turned out to be 0.00161.
The same measure for ATTGTGCA: 0.0337; for TATTTACA: 0.136.
The value for CTCCCCCC was -0.345.
For ATCGACTG, the “PBM E-score” value was 0.101.
As for AGCTCTTC, the “PBM E-score” value came to 0.0165.
Take CCTTGTAG: the “PBM E-score” value is -0.222.
Consider ATTCGGAG, for which the “PBM E-score” value is -0.0144.
The value for CATAATGA was 0.132; that for GGGCCCGA was -0.0174; that for CGATGGTC was -0.0796.
Take CAGCAACA: the “PBM E-score” value came to 0.0911.
As to ATCAATCG, the “PBM E-score” value came to 0.159.
Regarding CCGGGCAC, the “PBM E-score” value is -0.124.
For AGGCACCC, the “PBM E-score” value was -0.247.
Regarding AAGGCAGC, the “PBM E-score” value is -0.0607.
Turning to ACATATTG, the “PBM E-score” value is 0.0935.
Take CACCCGGG: the “PBM E-score” value is -0.168.
On to CCAGAAAG, for which the “PBM E-score” value was determined as 0.0242.
Consider AGCTTAGA, for which the “PBM E-score” value amounted to 0.166.
The same measure for AGGTGATA: -0.0057; for CGTCAACA: -0.128.
For the sequence CAAGAGTG, the “PBM E-score” value was -0.156.
As to AGCTTACT, the “PBM E-score” value was 0.201.
In the case of TACGAAGA, the “PBM E-score” value was 0.0419.
The value for CCTGCTTC was -0.193; that for CATATGCA was 0.0719.
The same measure for GTGCAAAC: 0.00041; for GGAAGGCC: -0.25.
With ACCCAAAG, the “PBM E-score” value was -0.124.
The value for GTGTAGCA was -0.113; that for CGGGAGCC was -0.238; that for CCTGTCCG was -0.174.
On to ATTCGTTG, for which the “PBM E-score” value is 0.162.
With GATGGGAC, the “PBM E-score” value was -0.0483.
Turning to GATGTAAC, the “PBM E-score” value is 0.071.
The value for ATGGTCTG was 0.0201.
As to CATTCGAA, the “PBM E-score” value was found to be 0.124.
Consider ATGCCGTC, for which the “PBM E-score” value was -0.0719.
For the sequence GCTTAATA, the “PBM E-score” value is 0.207.
For the sequence AAACGGGC, the “PBM E-score” value is -0.0703.
The value for TCACTCAA was 0.12.
